Reference: article PMC12098889, “Structural insight into PIF6-mediated red light signal transduction of plant phytochrome B” (Cell Discovery, 2025)
Results are given in words; binding and its absence hold for the method and conditions named. For part of these data: Binding seen in cells or lysates may run through a third protein. Some entries that bind do so weakly or less than the wild type.

Sequences of proteins named here, by UniProt entry; tags and fusion partners are left off. A change or cut given only in a name is not applied to a line headed by its entry. A line that says so, or that is headed by a name, gives the form on record, which may keep a tag or linker. Residues count along the entry.
PIF6αΔC fused to nLUC or cLUC (PIF6αΔC-nLUC and cLUC-PIF6αΔC) (Q8L5W7, residues 1-247): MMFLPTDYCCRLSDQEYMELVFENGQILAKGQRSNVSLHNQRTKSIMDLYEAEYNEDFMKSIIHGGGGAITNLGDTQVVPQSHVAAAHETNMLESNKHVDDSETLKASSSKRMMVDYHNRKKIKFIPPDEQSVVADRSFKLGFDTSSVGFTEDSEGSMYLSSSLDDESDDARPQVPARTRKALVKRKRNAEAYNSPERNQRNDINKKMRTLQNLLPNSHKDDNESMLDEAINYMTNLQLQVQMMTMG
PIF6N (1‒64) (Q8L5W7, residues 1-64): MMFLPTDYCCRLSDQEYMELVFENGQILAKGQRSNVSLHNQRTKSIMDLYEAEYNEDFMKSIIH

B1: phyBN^Y276H (1‒908) (domain or fragment, Arabidopsis, UniProt P14713 1-908, looked up)
chain: MVSGVGGSGGGRGGGRGGEEEPSSSHTPNNRRGGEQAQSSGTKSLRPRSNTESMSKAIQQYTVDARLHAVFEQSGESGKSFDYSQSLKTTTYGSSVPEQQITAYLSRIQRGGYIQPFGCMIAVDESSFRIIGYSENAREMLGIMPQSVPTLEKPEILAMGTDVRSLFTSSSSILLERAFVAREITLLNPVWIHSKNTGKPFYAILHRIDVGVVIDLEPARTEDPALSIAGAVQSQKLAVRAISQLQALPGGDIKLLCDTVVESVRDLTGYDRVMVHKFHEDEHGEVVAESKRDDLEPYIGLHYPATDIPQASRFLFKQNRVRMIVDCNATPVLVVQDDRLTQSMCLVGSTLRAPHGCHSQYMANMGSIASLAMAVIINGNEDDGSNVASGRSSMRLWGLVVCHHTSSRCIPFPLRYACEFLMQAFGLQLNMELQLALQMSEKRVLRTQTLLCDMLLRDSPAGIVTQSPSIMDLVKCDGAAFLYHGKYYPLGVAPSEVQIKDVVEWLLANHADSTGLSTDSLGDAGYPGAAALGDAVCGMAVAYITKRDFLFWFRSHTAKEIKWGGAKHHPEDKDDGQRMHPRSSFQAFLEVVKSRSQPWETAEMDAIHSLQLILRDSFKESEAAMNSKVVDGVVQPCRDMAGEQGIDELGAVAREMVRLIETATVPIFAVDAGGCINGWNAKIAELTGLSVEEAMGKSLVSDLIYKENEATVNKLLSRALRGDEEKNVEVKLKTFSPELQGKAVFVVVNACSSKDYLNNIVGVCFVGQDVTSQKIVMDKFINIQGDYKAIVHSPNPLIPPIFAADENTCCLEWNMAMEKLTGWSRSEVIGKMIVGEVFGSCCMLKGPDALTKFMIVLHNAIGGQDTDKFPFPFFDRNGKFVQALLTANKRVSLEGKVIGAFCFLQIPS
modifications: PΦB chromophore covalently bound
notes: Arabidopsis phytochrome B, residues 1-908, with Y276H; also called HKRD-truncated phyBN^Y276H; truncated phyBN^Y276H (M1‒S908); source: E. coli BL21(DE3), co-expressed with HO1 and HY2, purified; not shown: 3× Flag, N-terminal, kept

Columns and labels:
[1] = molecular target: PIF6αΔC fused to nLUC or cLUC (PIF6αΔC-nLUC and cLUC-PIF6αΔC) (Arabidopsis) (UniProt Q8L5W7); assay: split reporter; luciferase complementation imaging (LCI) in Nicotiana benthamiana leaves; PIF6αΔC-nLUC with cLUC-PIF6αΔC, with or without co-transfected phyB forms; far-red or red light for 5 min before imaging for the phyB combinations
[2] = molecular target: PIF6N (1‒64) (Arabidopsis) (UniProt Q8L5W7); assay: pull-down; StrepII-tagged PIF6N (1-64) and its mutants used to pull down Flag-tagged phyBN (Pfr) and its site-directed mutants; SDS-PAGE with Coomassie and zinc-induced fluorescence; both purified
[3] = molecular target: PIF6N (1‒64) (Arabidopsis) (UniProt Q8L5W7); assay: pull-down; StrepII-tagged PIF6N (1-64) used to pull down Flag-tagged phyBN^Y276H and its site-directed mutants; light condition not stated; both purified

binding [1] | binding [3] | also measured | Molecule
binds | – | – | PIF6αΔC fused to nLUC or cLUC (PIF6αΔC-nLUC and cLUC-PIF6αΔC) (from UniProt Q8L5W7 1-247) (domain or fragment)
binds | – | – | phyB expressed in Nicotiana benthamiana (pPlink) (from UniProt P14713 1-1172) (receptor)
– | – | binding [2]: binds weakly | phyBN Q109A (from UniProt P14713 1-908) (domain or fragment)
– | binds weakly | – | phyBN^Y276H Q109A (from UniProt P14713 1-908) (domain or fragment)
binds | – | – | phyB^Y276H expressed in Nicotiana benthamiana (pPlink) (from UniProt P14713 1-1172) (receptor)
– | binds | – | B1
